Measurements reported in the supplement of paper PMC10849652.
Some of the results follow.

The chains behind the UniProt entries cited, without tags or fusion partners. Where a name states a change or a piece, a line headed by the entry shows the natural chain unless it says otherwise.
UniProt Q96I25: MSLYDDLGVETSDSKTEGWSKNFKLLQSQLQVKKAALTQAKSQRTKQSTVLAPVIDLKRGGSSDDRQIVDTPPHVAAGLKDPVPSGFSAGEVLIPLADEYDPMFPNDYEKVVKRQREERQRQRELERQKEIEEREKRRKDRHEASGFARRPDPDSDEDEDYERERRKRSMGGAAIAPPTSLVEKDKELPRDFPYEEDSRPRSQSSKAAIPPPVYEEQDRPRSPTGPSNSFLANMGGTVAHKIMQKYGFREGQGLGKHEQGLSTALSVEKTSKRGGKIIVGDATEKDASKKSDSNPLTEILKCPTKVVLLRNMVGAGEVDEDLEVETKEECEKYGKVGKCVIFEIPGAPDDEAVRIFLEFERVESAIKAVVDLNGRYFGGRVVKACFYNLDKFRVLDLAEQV
UniProt Q9NW64: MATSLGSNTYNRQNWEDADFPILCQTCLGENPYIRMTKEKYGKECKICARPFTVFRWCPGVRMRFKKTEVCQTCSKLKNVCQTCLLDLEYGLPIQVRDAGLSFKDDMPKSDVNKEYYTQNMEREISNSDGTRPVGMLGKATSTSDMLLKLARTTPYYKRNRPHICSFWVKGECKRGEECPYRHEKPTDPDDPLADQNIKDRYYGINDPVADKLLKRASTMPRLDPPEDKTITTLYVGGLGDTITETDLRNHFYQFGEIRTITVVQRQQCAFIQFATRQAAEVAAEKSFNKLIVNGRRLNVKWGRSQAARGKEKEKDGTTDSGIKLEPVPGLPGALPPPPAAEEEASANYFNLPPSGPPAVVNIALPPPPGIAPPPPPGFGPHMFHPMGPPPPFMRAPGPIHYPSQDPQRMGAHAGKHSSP
UniProt Q92878: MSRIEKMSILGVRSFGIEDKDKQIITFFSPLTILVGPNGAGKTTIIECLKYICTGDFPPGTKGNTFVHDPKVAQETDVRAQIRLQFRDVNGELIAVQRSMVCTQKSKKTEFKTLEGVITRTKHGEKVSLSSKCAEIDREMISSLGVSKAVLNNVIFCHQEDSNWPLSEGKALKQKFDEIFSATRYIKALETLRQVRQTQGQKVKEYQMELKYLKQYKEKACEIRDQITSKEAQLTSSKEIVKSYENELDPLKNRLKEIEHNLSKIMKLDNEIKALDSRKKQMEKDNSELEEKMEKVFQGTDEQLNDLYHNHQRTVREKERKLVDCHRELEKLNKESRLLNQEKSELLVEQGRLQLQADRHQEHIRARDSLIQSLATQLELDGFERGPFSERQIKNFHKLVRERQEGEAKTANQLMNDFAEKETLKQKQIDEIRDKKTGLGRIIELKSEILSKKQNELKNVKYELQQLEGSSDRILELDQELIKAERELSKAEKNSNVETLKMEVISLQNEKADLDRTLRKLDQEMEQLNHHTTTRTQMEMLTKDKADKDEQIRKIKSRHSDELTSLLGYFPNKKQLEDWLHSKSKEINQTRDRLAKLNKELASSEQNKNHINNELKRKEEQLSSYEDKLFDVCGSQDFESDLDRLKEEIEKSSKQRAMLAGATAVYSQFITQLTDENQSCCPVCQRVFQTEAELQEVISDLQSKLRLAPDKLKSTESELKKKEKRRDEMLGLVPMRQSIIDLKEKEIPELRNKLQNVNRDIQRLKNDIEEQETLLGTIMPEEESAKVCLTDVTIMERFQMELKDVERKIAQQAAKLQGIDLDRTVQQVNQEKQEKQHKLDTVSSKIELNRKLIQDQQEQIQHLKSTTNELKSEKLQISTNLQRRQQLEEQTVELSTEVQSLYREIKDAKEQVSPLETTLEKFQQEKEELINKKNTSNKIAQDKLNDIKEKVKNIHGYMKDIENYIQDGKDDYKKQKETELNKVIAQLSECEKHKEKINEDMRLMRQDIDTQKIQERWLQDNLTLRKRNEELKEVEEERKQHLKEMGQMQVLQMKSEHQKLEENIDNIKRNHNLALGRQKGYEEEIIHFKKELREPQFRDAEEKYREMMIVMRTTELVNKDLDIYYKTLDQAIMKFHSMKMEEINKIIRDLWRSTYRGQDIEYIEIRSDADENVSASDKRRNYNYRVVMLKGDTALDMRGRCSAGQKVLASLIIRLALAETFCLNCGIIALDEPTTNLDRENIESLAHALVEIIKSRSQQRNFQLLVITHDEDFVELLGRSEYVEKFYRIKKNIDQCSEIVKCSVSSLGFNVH
UniProt Q9P0K7: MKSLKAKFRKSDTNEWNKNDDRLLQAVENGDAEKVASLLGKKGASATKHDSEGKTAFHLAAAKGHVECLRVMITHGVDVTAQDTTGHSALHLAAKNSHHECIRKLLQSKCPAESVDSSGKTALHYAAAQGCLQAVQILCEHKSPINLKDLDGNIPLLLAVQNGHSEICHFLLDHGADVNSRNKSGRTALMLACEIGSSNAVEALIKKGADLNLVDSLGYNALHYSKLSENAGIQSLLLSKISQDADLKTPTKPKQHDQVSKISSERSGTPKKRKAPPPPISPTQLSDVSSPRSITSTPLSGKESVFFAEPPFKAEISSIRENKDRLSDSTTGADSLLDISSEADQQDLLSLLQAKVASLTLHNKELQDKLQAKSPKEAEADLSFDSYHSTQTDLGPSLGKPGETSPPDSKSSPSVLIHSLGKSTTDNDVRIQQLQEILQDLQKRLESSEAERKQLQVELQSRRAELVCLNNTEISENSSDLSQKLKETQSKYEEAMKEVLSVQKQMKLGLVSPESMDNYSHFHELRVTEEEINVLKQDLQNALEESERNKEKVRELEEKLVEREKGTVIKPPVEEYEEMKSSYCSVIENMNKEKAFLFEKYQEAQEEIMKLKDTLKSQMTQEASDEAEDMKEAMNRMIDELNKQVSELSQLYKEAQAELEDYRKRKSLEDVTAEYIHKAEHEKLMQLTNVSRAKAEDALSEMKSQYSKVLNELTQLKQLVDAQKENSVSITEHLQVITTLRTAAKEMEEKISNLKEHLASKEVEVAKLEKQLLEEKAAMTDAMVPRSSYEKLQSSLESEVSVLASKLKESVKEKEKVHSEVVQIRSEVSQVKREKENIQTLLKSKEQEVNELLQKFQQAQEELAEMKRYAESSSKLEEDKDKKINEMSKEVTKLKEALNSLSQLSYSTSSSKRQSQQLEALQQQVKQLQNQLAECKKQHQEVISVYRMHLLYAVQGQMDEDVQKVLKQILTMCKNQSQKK
UniProt Q92930: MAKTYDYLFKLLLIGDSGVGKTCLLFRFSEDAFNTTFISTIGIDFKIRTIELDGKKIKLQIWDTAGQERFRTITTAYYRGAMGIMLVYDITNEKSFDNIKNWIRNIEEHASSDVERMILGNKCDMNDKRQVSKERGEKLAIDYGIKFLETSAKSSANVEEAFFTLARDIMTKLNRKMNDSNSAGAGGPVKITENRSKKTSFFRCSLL
UniProt Q9H082: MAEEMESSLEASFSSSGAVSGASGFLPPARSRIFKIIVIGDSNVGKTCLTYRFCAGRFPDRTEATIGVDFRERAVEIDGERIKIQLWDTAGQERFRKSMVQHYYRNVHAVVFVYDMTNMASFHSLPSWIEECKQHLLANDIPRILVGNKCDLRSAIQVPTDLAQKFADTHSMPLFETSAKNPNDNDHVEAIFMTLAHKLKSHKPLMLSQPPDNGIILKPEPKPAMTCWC
UniProt Q9NS91, whole entry, looked up: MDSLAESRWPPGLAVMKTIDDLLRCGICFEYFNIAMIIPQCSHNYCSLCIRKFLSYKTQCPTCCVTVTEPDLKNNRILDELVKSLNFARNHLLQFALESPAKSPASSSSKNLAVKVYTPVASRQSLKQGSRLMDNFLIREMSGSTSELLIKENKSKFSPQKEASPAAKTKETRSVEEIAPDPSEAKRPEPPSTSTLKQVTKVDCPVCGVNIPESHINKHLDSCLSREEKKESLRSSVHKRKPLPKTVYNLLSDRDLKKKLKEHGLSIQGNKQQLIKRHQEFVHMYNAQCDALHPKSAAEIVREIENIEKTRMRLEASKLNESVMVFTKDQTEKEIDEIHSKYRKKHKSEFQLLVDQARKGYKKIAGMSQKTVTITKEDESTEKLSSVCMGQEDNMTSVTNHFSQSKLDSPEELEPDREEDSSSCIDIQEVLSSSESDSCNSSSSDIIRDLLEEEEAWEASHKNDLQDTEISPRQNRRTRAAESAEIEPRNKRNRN
UniProt Q16576, whole entry, looked up: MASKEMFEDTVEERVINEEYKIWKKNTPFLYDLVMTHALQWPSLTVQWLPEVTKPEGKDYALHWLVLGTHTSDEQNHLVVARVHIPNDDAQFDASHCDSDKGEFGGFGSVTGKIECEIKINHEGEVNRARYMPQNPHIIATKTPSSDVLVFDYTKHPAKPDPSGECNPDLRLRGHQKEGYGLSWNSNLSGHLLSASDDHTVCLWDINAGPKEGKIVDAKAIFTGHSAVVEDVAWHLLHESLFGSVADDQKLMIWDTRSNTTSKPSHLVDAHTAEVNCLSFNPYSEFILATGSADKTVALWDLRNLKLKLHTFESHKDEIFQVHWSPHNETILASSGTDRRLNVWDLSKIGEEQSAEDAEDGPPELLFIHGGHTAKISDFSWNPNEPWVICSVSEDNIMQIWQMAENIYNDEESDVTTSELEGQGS
UniProt Q15283: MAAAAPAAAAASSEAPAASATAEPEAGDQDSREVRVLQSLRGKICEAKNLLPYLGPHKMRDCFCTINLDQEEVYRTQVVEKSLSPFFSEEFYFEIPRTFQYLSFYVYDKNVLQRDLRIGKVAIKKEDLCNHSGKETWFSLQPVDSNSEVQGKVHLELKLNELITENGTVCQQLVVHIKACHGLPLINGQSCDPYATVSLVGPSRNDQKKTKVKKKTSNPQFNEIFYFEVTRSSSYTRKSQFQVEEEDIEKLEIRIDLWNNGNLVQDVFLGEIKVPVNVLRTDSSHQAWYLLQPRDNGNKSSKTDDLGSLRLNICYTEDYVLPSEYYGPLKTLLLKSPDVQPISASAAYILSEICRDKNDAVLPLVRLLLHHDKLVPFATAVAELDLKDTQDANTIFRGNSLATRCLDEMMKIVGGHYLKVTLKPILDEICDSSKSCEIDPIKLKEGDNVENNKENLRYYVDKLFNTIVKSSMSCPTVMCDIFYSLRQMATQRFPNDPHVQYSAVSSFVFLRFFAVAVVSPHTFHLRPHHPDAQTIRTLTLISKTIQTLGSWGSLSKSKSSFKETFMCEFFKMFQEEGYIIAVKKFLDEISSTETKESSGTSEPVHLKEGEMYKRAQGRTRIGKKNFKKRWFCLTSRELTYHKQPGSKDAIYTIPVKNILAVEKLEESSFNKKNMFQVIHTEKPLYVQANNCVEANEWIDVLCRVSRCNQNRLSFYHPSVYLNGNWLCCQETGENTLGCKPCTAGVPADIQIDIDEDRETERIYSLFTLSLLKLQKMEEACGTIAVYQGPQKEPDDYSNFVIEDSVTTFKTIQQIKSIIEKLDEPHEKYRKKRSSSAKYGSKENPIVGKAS
UniProt Q5T160: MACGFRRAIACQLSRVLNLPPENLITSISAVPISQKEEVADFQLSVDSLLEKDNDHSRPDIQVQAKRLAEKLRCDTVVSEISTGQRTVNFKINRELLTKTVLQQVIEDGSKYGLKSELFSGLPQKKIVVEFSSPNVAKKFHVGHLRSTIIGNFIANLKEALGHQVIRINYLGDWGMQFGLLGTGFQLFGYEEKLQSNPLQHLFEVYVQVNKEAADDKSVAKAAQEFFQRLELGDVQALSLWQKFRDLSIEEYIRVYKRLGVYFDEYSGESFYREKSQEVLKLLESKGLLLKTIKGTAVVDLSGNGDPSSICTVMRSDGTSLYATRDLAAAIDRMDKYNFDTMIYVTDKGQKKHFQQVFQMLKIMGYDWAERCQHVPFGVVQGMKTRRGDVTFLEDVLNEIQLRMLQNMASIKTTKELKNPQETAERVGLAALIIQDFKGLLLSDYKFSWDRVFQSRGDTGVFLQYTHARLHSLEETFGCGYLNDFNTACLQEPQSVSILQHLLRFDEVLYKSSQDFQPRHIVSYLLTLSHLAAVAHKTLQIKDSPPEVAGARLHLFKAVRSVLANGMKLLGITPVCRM
UniProt O00194: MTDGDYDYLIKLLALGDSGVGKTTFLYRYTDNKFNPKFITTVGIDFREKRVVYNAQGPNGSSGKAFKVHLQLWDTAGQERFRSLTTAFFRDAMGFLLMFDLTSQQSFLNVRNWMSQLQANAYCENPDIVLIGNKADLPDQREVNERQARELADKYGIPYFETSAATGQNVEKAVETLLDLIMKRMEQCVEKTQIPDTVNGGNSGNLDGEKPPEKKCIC
UniProt Q9Y3L5: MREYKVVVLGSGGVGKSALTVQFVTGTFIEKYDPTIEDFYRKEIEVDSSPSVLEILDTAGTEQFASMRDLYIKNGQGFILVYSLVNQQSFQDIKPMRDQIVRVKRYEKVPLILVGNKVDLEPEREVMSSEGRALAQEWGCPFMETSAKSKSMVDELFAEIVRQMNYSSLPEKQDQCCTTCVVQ

Columns and labels:
Test in all cases: log2 fold change, soluble protein after heating vs DMSO (PISA); higher = thermal stabilisation; K562 cells, 10 uM, 30 min; active = over 0.2 and 3.5 SD of the protein, either way, in both replicates (recomputed)
[1] = compound: CC1=C(C=C(C=C1)NC(=O)C2=CC(=CC=C2)C(C)(C)C#N)NC3=CC4=C(C=C3)N=CN(C4=O)C
Summary of the method: (§1)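 Soluble protein was quantified by TMTpro 16plex LC-MS/MS after channel sums were equalised. It was obtained as the supernatant after 21,000xg for 90 min from pooled aliquots of K562 cells (2×10^6 cells/mL, 10 μM compound, 30 min) heated for 3 min across 48°C-58°C and extracted in PBS with 0.5% NP-40 at 4°C. Thermal stability values are relative to control samples and come from duplicates. They are given as log2 fold changes.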

[2] = compound: CC1=C(C=C(C=C1)NC(=O)C2=CC(=CC=C2)N(C)C)NC(=O)C3=CC=C(C=C3)O
Summary of the method: as §1

[3] = compound: CC1=CC=C(C=C1)SC2=C3C=C(SC3=CN=C2)C(=O)N
Summary of the method: as §1

[4] = compound: CC1=NC(=CC=C1)C2=C(N=C(N2)C(C)(C)C)C3=CC4=NC=CN=C4C=C3
Summary of the method: as §1

[5] = compound: CCCCN(Cc1ccc(C(=O)NO)cc1)C(=O)Nc1ccccc1 [Nexturastat A]
Summary of the method: as §1

[6] = compound: CCCS(=O)(=O)Nc1ccc(F)c(C(=O)c2c[nH]c3ncc(-c4ccc(Cl)cc4)cc23)c1F [vemurafenib]
Summary of the method: as §1

[7] = compound: CCCS(=O)(=O)Nc1ccc(F)c(C(=O)c2c[nH]c3ncc(Cl)cc23)c1F
Summary of the method: as §1

[8] = compound: CCCc1cc(C)[nH]c(=O)c1CNC(=O)c1cc(-c2ccnc(N3CCN(C)CC3)c2)cc2c1cnn2C(C)C
Summary of the method: as §1

[9] = compound: CCN(CC)Cc1ccc2cc(COC(=O)Nc3ccc(C(=O)NO)cc3)ccc2c1 [givinostat]
Summary of the method: as §1

[10] = compound: CCN(CCCOc1ccc2c(Nc3cc(CC(=O)Nc4cccc(F)c4)[nH]n3)ncnc2c1)CCOP(=O)(O)O [barasertib]
Summary of the method: as §1

[11] = compound: CC[C@@H]1C(=O)N(C)c2cnc(Nc3ccc(C(=O)NC4CCN(C)CC4)cc3OC)nc2N1C1CCCC1
Summary of the method: as §1

[12] = compound: CC[C@@H]1C(=O)N(C)c2cnc(Nc3ccc(C(=O)N[C@H]4CC[C@H](N5CCN(CC6CC6)CC5)CC4)cc3OC)nc2N1C(C)C [volasertib]
Summary of the method: as §1

[13] = compound: CC[C@H](C)N1C=C(C2=C(C=C(C=C21)C3=CN=C(C=C3)N4CCNCC4)C(=O)NCC5=C(C=C(NC5=O)C)C)C
Summary of the method: as §1

[14] = compound: CC[C@H](C)[C@@H](C(=O)N[C@@H]([C@@H](C)O)C(=O)N[C@@H](CC(C)C)C(=O)[C@]1(CO1)C)NC(=O)[C@H]([C@@H](C)CC)N(C)C(=O)C [epoxomicin]
Summary of the method: as §1

[15] = compound: CCn1cc(-c2ccnc3[nH]c(-c4cccc(CN(C)C)c4)cc23)c(-c2ccc(NC(=O)N(C)C)cc2)n1
Summary of the method: as §1

[16] = compound: CN(C)CC(=O)Nc1ccc2[nH]c(=O)c3ccccc3c2c1
Summary of the method: as §1

[17] = compound: CN1C2=C(C3=C1C(=O)N(N=C3)CC4=CC(=CC=C4)N)SC(=C2)S(=O)C
Summary of the method: as §1

[18] = compound: CN1CCC(CNc2ccc3ncc(-c4cccc(OC(F)(F)F)c4)n3n2)CC1
Summary of the method: as §1

[19] = compound: CCn1c(C(=O)N(C2CC2)C2CC2)cc2c3c(ncn3C)c(Nc3cc(C)n(C)n3)nc21
Summary of the method: as §1

[20] = compound: CN(CCOC1=CC=C(C=C1)C[C@H]2C(=O)NC(=O)S2)C3=CC=CC=N3 (racemic) [rosiglitazone]
Summary of the method: as §1

Target | log2 fold change [1] | log2 fold change [2] | log2 fold change [3] | log2 fold change [4] | log2 fold change [5] | log2 fold change [6] | log2 fold change [7] | log2 fold change [8] | log2 fold change [9] | log2 fold change [10] | log2 fold change [11] | log2 fold change [12] | log2 fold change [13] | log2 fold change [14] | log2 fold change [15] | log2 fold change [16] | log2 fold change [17] | log2 fold change [18] | log2 fold change [19] | log2 fold change [20]
RBM17 (UniProt Q96I25) | inactive: -0.004 | inactive: -0.036 | inactive: 0.057 | inactive: 0.012 | inactive: 0.007 | inactive: 0.068 | inactive: 0.118 | inactive: 0.013 | inactive: 0.028 | inactive: 0.043 | inactive: -0.08 | active: -0.422 | inactive: 0.085 | inactive: 0.066 | inactive: -0.059 | inactive: 0.048 | inactive: 0.088 | inactive: -0.037 | – | –
RBM22 (UniProt Q9NW64) | inactive: -0.049 | inactive: 0.031 | inactive: -0.056 | inactive: -0.014 | inactive: 0.052 | inactive: 0.003 | inactive: -0.004 | inactive: -0.038 | inactive: 0.018 | inactive: -0.006 | inactive: -0.027 | active: -0.3 | inactive: 0.002 | inactive: -0.009 | inactive: 0.061 | inactive: -0.058 | inactive: 0.011 | inactive: -0.003 | – | –
RAD50 isoform 2 (UniProt Q92878) | inactive: 0 | inactive: -0.024 | inactive: 0.004 | inactive: 0.009 | inactive: -0.005 | inactive: 0.027 | inactive: 0.038 | inactive: 0.014 | inactive: 0.026 | inactive: 0.033 | inactive: -0.069 | active: -0.228 | inactive: 0.041 | inactive: 0.041 | inactive: -0.001 | inactive: 0.025 | inactive: -0.03 | inactive: -0.074 | – | –
RAI14 isoform 2 (UniProt Q9P0K7) | inactive: -0.107 | inactive: 0 | inactive: -0.005 | – | inactive: 0.088 | inactive: -0.058 | inactive: 0.052 | inactive: 0.141 | inactive: 0.031 | inactive: -0.133 | – | inactive: -0.273 | inactive: 0.361 | inactive: 0.045 | inactive: 0.045 | inactive: 0.106 | inactive: 0.145 | inactive: -0.087 | inactive: -0.02 | inactive: 0.224
RAB8B (UniProt Q92930) | inactive: 0.055 | inactive: 0.013 | inactive: 0.073 | inactive: 0.081 | inactive: -0.082 | inactive: 0.192 | inactive: 0.018 | inactive: 0.109 | inactive: -0.014 | inactive: -0.016 | inactive: 0.036 | inactive: 0.033 | inactive: -0.039 | inactive: 0.229 | inactive: 0.003 | inactive: 0.013 | inactive: -0.05 | inactive: 0.227 | – | –
RAF1 isoform 2 (UniProt P04049) | inactive: 0.317 | inactive: 0.056 | inactive: 0.078 | inactive: -0.043 | inactive: 0.077 | inactive: 0.17 | inactive: 0.438 | inactive: -0.113 | inactive: 0.016 | inactive: 0.044 | inactive: 0.135 | inactive: -0.361 | – | inactive: -0.003 | inactive: -0.241 | inactive: 0.028 | inactive: -0.129 | inactive: -0.222 | – | –
RAB33B (UniProt Q9H082) | inactive: -0.028 | inactive: -0.026 | inactive: -0.028 | inactive: -0.071 | inactive: -0.004 | inactive: -0.083 | inactive: -0.038 | inactive: -0.065 | inactive: -0.012 | inactive: 0.031 | inactive: -0.016 | inactive: -0.014 | inactive: -0.04 | inactive: -0.009 | inactive: 0.09 | inactive: -0.031 | inactive: -0.067 | inactive: -0.006 | – | –
RB1CC1 (UniProt Q8TDY2) | inactive: -0.061 | inactive: -0.005 | inactive: 0.025 | inactive: -0.031 | inactive: 0.161 | inactive: -0.022 | inactive: -0.034 | inactive: 0.147 | inactive: 0.102 | inactive: -0.008 | inactive: 0.051 | inactive: -0.022 | inactive: -0.086 | inactive: 0.063 | inactive: -0.07 | inactive: -0.077 | inactive: 0.047 | inactive: -0.116 | – | –
RAD18 (UniProt Q9NS91) | inactive: -0.042 | inactive: -0.131 | inactive: 0.049 | inactive: 0.063 | inactive: 0.106 | inactive: 0.154 | inactive: 0.113 | inactive: 0.459 | inactive: 0.237 | inactive: 0.145 | – | inactive: -0.31 | inactive: 0.038 | inactive: -0.031 | inactive: -0.004 | inactive: 0.038 | inactive: 0.021 | inactive: -0.184 | inactive: -0.021 | inactive: -0.037
RANBP6 (UniProt O60518) | inactive: 0.01 | inactive: -0.087 | inactive: -0.01 | inactive: -0.201 | – | – | inactive: -0.034 | – | – | – | inactive: -0.093 | inactive: -0.194 | – | – | – | – | inactive: -0.271 | – | – | –
RALGAPB (UniProt Q86X10) | inactive: 0 | inactive: -0.085 | inactive: 0.049 | inactive: 0.072 | inactive: 0.033 | – | inactive: 0.037 | inactive: 0.084 | – | inactive: 0.016 | inactive: 0.039 | inactive: -0.415 | inactive: 0.053 | inactive: -0.04 | – | – | inactive: 0.007 | – | – | inactive: 0.024
RBBP7 (UniProt Q16576) | inactive: 0.051 | inactive: -0.003 | inactive: 0.002 | inactive: -0.117 | inactive: 0.007 | – | inactive: 0 | inactive: -0.107 | inactive: -0.03 | inactive: 0.019 | inactive: -0.11 | inactive: -0.115 | inactive: -0.047 | inactive: 0.018 | – | – | inactive: -0.148 | – | inactive: 0.049 | inactive: 0.046
RAPGEF6 isoform 4 (UniProt Q8TEU7) | inactive: 0.075 | inactive: 0.005 | – | inactive: -0.029 | inactive: -0.025 | inactive: -0.103 | – | inactive: 0.242 | inactive: 0.026 | inactive: 0.075 | inactive: 0.018 | – | inactive: 0.063 | inactive: 0.055 | inactive: -0.034 | inactive: -0.089 | – | inactive: -0.202 | inactive: -0.061 | inactive: 0.081
RASA2 (UniProt Q15283) | inactive: -0.031 | inactive: -0.03 | inactive: -0.32 | inactive: -0.28 | inactive: -0.053 | inactive: -0.217 | inactive: -0.438 | inactive: -0.001 | – | inactive: 0.04 | inactive: 0.011 | inactive: -0.028 | – | inactive: -0.092 | inactive: -0.026 | inactive: -0.141 | inactive: 0.308 | inactive: -0.157 | – | inactive: 0.203
RAB3IL1 (UniProt E9PK89) | inactive: -0.069 | inactive: -0.037 | inactive: 0 | inactive: 0.061 | inactive: -0.111 | inactive: -0.08 | inactive: -0.053 | – | inactive: 0.278 | inactive: -0.014 | inactive: -0.012 | inactive: -0.137 | inactive: 0.25 | inactive: 0.109 | active: -0.555 | inactive: 0.035 | – | inactive: -0.342 | – | –
RARS2 (UniProt Q5T160) | inactive: 0.018 | inactive: 0.033 | inactive: 0.056 | inactive: 0.029 | inactive: -0.027 | inactive: 0.019 | inactive: 0.05 | inactive: -0.014 | inactive: -0.037 | inactive: 0.017 | inactive: -0.121 | active: -0.238 | inactive: -0.003 | inactive: 0.04 | inactive: -0.046 | inactive: 0.026 | inactive: -0.065 | inactive: -0.143 | – | –
RAB27B (UniProt O00194) | inactive: -0.038 | inactive: 0.063 | inactive: 0.022 | inactive: -0.08 | – | inactive: 0.01 | inactive: -0.005 | inactive: 0.129 | inactive: 0.026 | inactive: -0.099 | inactive: 0.072 | inactive: 0.085 | inactive: 0.005 | – | inactive: -0.181 | inactive: -0.075 | inactive: -0.059 | inactive: 0.22 | inactive: -0.025 | inactive: -0.043
RBBP6 (UniProt Q7Z6E9) | inactive: -0.108 | inactive: 0.119 | inactive: 0.03 | inactive: 0.127 | inactive: -0.051 | inactive: 0.008 | inactive: 0.068 | inactive: -0.023 | inactive: 0.043 | inactive: -0.018 | inactive: -0.061 | inactive: -0.068 | inactive: 0.013 | inactive: -0.001 | inactive: -0.003 | inactive: 0.024 | – | inactive: -0.014 | – | –
RAP2C (UniProt Q9Y3L5) | inactive: -0.064 | inactive: 0.052 | inactive: -0.03 | – | inactive: 0 | inactive: 0.066 | inactive: -0.13 | inactive: -0.052 | inactive: -0.044 | inactive: -0.031 | inactive: 0.02 | inactive: 0.05 | inactive: 0.042 | inactive: 0.172 | inactive: 0.097 | inactive: 0.052 | inactive: -0.105 | inactive: 0.173 | – | –

Reformatted: entries from further up.

| Target | log2 fold change [1] | log2 fold change [2] | log2 fold change [3] | log2 fold change [4] | log2 fold change [5] | log2 fold change [6] | log2 fold change [7] | log2 fold change [8] | log2 fold change [9] | log2 fold change [10] | log2 fold change [11] | log2 fold change [12] | log2 fold change [13] | log2 fold change [14] | log2 fold change [15] | log2 fold change [16] | log2 fold change [17] | log2 fold change [18] | log2 fold change [19] | log2 fold change [20] |
| --- | --- | --- | --- | --- | --- | --- | --- | --- | --- | --- | --- | --- | --- | --- | --- | --- | --- | --- | --- | --- |
| RAD18 (UniProt Q9NS91) | inactive: -0.042 | inactive: -0.131 | inactive: 0.049 | inactive: 0.063 | inactive: 0.106 | inactive: 0.154 | inactive: 0.113 | inactive: 0.459 | inactive: 0.237 | inactive: 0.145 | – | inactive: -0.31 | inactive: 0.038 | inactive: -0.031 | inactive: -0.004 | inactive: 0.038 | inactive: 0.021 | inactive: -0.184 | inactive: -0.021 | inactive: -0.037 |
| RANBP6 (UniProt O60518) | inactive: 0.01 | inactive: -0.087 | inactive: -0.01 | inactive: -0.201 | – | – | inactive: -0.034 | – | – | – | inactive: -0.093 | inactive: -0.194 | – | – | – | – | inactive: -0.271 | – | – | – |
